Experimental data reported in paper PMC11109331.
No constants are given. Whether binding was seen depends on the method and setting. In cells and extracts the contact can be indirect. Some binding calls cover weakened binding; strength is not graded here. Where a sequence is shown, tags or fusion partners need not be part of it.

Chains of the proteins cited; added tags and fusions are not shown.
UniProt P11940: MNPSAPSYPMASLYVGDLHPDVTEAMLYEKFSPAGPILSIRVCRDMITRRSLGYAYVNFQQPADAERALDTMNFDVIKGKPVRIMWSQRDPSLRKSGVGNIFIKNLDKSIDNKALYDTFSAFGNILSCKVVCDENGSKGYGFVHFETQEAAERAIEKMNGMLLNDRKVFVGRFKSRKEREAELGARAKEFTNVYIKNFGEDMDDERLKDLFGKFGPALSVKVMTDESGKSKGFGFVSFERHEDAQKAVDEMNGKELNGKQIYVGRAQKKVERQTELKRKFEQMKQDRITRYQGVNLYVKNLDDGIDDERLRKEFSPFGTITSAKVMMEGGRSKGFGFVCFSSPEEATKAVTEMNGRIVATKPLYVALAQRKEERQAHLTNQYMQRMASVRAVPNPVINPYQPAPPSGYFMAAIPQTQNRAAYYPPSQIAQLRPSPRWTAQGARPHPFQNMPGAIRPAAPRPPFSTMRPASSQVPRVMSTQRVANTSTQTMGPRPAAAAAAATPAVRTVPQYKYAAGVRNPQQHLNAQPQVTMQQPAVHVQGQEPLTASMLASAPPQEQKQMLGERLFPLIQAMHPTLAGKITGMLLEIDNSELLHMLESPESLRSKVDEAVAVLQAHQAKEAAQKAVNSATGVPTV

Biological target: T1, Flag-MKRN3 (UniProt Q13064)
T1 sequence: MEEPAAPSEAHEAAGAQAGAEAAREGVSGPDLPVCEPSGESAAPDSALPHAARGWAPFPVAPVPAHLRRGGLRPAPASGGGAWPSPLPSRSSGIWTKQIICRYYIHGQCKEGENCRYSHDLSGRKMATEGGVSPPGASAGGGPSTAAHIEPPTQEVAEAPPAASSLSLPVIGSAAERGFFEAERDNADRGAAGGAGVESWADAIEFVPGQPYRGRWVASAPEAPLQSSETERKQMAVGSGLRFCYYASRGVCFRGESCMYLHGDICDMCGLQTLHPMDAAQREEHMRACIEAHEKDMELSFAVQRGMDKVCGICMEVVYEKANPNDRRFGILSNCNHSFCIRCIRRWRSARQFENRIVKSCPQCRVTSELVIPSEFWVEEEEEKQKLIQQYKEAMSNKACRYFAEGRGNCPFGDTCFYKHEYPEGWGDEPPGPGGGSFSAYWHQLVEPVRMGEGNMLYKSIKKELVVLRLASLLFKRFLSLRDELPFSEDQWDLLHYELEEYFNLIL
Assay: co-IP; HepG2 cells infected with lentiviruses expressing Flag-MKRN3, with or without circDDX21 overexpression or circDDX21 shRNA; immunoprecipitation with anti-Flag antibody

Substance: PABPC1 (from UniProt P11940 1-636)
- binding: binds
